Measured values taken from doi:10.1101/2023.08.10.552820.
No constants are given. Whether binding was seen depends on the method and setting. For part of these data: Binding seen in cells or lysates may run through a third protein. Some results given as binding are weak or reduced against the parent protein; the word gives no strength. For part of these data: Sequences can lack the tags named with a protein.

Amino acid sequences for entries named in this document (tags omitted). Residues count along the entry.
UniProt Q4FE47, whole entry: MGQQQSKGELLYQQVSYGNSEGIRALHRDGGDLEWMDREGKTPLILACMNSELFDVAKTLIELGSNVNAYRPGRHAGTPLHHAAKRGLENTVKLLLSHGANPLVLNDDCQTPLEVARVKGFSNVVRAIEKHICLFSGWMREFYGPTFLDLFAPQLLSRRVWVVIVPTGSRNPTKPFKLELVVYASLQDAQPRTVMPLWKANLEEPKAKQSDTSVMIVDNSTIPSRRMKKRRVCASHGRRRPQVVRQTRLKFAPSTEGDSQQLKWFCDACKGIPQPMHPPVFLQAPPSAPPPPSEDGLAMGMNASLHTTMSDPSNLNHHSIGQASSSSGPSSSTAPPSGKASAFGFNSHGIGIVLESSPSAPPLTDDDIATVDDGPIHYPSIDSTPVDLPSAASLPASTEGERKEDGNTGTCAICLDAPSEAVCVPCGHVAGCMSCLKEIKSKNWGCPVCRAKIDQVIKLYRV
UniProt Q9FPH0, whole entry: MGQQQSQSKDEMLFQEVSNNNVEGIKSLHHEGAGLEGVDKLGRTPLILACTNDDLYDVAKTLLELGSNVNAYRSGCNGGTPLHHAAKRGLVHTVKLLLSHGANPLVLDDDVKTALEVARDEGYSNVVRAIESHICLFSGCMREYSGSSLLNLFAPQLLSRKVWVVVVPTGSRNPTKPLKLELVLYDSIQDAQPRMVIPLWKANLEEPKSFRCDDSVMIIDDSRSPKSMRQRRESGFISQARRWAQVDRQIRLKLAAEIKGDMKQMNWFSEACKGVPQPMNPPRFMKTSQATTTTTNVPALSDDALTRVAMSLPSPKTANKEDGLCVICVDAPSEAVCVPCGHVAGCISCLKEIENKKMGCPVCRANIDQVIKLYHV
UniProt Q9S9T7, whole entry: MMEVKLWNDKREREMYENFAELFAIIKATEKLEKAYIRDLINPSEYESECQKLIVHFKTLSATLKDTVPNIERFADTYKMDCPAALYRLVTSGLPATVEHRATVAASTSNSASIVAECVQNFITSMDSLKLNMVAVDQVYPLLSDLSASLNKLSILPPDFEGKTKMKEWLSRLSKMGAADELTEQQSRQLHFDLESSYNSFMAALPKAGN
UniProt Q9FL28, 24-1173: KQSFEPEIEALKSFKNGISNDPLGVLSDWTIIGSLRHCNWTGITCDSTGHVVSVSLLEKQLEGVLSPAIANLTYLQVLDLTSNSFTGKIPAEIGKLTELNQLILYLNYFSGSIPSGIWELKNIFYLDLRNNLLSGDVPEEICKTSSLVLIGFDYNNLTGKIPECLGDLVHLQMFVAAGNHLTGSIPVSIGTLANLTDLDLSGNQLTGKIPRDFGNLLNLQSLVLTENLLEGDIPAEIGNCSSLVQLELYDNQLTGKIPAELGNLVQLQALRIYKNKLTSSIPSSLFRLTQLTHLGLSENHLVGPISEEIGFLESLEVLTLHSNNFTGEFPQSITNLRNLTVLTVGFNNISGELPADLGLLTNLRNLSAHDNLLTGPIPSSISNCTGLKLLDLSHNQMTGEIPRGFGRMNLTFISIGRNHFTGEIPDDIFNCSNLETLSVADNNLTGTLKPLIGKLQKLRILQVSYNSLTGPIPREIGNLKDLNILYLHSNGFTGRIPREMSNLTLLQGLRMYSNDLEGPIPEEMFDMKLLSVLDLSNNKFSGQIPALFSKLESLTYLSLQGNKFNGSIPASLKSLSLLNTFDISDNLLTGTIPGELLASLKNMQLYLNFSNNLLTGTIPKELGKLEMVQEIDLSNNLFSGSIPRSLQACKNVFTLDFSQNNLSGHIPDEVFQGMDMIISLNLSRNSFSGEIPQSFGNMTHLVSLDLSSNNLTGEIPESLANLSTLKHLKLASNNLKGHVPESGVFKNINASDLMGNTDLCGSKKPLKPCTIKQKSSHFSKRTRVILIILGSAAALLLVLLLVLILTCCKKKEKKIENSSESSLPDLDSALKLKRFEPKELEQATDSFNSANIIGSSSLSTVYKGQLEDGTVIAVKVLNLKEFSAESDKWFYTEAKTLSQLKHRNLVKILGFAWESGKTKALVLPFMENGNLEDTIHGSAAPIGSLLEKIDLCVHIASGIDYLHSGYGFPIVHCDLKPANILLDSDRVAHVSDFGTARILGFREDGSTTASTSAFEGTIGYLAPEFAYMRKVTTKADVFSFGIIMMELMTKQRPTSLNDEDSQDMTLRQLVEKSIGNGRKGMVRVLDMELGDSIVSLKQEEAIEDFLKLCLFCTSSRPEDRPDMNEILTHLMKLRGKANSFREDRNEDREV

T1: VPS37-1-cYFP (Arabidopsis) (UniProt Q9SCP9)
T1 sequence: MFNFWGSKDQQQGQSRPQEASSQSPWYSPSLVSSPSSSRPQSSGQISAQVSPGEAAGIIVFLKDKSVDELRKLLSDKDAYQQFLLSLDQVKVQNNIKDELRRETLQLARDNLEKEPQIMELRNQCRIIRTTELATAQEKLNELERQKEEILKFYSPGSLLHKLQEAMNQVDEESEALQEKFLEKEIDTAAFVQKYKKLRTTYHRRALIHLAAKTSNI

T2: UBC13B (AtUBC36), two-hybrid fusion (Arabidopsis) (UniProt Q9FZ48)
T2 sequence: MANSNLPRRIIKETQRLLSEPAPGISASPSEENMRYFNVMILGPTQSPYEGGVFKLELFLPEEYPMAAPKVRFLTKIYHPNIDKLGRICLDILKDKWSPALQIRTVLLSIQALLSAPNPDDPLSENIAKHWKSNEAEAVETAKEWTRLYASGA


Assays:
[1] = target: XBAT35.1-cYFP (Arabidopsis) (UniProt Q4FE47); test: split reporter
[2] = target: T1, VPS37-1-cYFP (Arabidopsis); test: split reporter
[3] = target: XBAT34-cYFP (Arabidopsis) (UniProt Q9FPH0); test: split reporter
[4] = target: VPS28-2-cYFP (Arabidopsis) (UniProt Q9S9T7); test: split reporter
[5] = target: UBC13A (AtUBC35), two-hybrid fusion (Arabidopsis) (UniProt Q94A97); test: two-hybrid
[6] = target: T2, UBC13B (AtUBC36), two-hybrid fusion (Arabidopsis); test: two-hybrid
FLS2-nYFP (Arabidopsis) = FLS2-nYFP (Arabidopsis) (UniProt Q9FL28); test: split reporter

Molecule | binding [1] | binding [3] | binding [5] | binding [6] | binding (FLS2-nYFP (Arabidopsis)) | further results
FLS2-nYFP (from UniProt Q9FL28 24-1173) (receptor) | no binding | no binding | – | – | – | binding [2]: binds; binding [4]: binds
XBAT34, two-hybrid fusion (from UniProt Q9FPH0 1-376) (enzyme) | – | – | binds weakly | binds weakly | – | –
XBAT35.1, two-hybrid fusion (from UniProt Q4FE47 1-462) (enzyme) | – | – | binds | binds | – | –
BAK1-nYFP (receptor, UniProt Q94F62 26-615) NAEGDALSALKNSLADPNKVLQSWDATLVTPCTWFHVTCNSDNSVTRVDLGNANLSGQLVMQLGQLPNLQYLELYSNNITGTIPEQLGNLTELVSLDLYLNNLSGPIPSTLGRLKKLRFLRLNNNSLSGEIPRSLTAVLTLQVLDLSNNPLTGDIPVNGSFSLFTPISFANTKLTPLPASPPPPISPTPPSPAGSNRITGAIAGGVAAGAALLFAVPAIALAWWRRKKPQDHFFDVPAEEDPEVHLGQLKRFSLRELQVASDNFSNKNILGRGGFGKVYKGRLADGTLVAVKRLKEERTQGGELQFQTEVEMISMAVHRNLLRLRGFCMTPTERLLVYPYMANGSVASCLRERPESQPPLDWPKRQRIALGSARGLAYLHDHCDPKIIHRDVKAANILLDEEFEAVVGDFGLAKLMDYKDTHVTTAVRGTIGHIAPEYLSTGKSSEKTDVFGYGVMLLELITGQRAFDLARLANDDDVMLLDWVKGLLKEKKLEALVDVDLQGNYKDEEVEQLIQVALLCTQSSPMERPKMSEVVRMLEGDGLAERWEEWQKEEMFRQDFNYPTHHPAVSGWIIGDSTSQIENEYPSGPR | no binding | no binding | – | – | – | –
DRP1A-cYFP (protein, UniProt P42697 1-610) MENLISLVNKIQRACTALGDHGDSSALPTLWDSLPAIAVVGGQSSGKSSVLESIVGKDFLPRGSGIVTRRPLVLQLQKIDDGTREYAEFLHLPRKKFTDFAAVRKEIQDETDRETGRSKAISSVPIHLSIYSPNVVNLTLIDLPGLTKVAVDGQSDSIVKDIENMVRSYIEKPNCIILAISPANQDLATSDAIKISREVDPSGDRTFGVLTKIDLMDKGTDAVEILEGRSFKLKYPWVGVVNRSQADINKNVDMIAARKREREYFSNTTEYRHLANKMGSEHLAKMLSKHLERVIKSRIPGIQSLINKTVLELETELSRLGKPIAADAGGKLYSIMEICRLFDQIFKEHLDGVRAGGEKVYNVFDNQLPAALKRLQFDKQLAMDNIRKLVTEADGYQPHLIAPEQGYRRLIESSIVSIRGPAEASVDTVHAILKDLVHKSVNETVELKQYPALRVEVTNAAIESLDKMREGSKKATLQLVDMECSYLTVDFFRKLPQDVEKGGNPTHSIFDRYNDSYLRRIGSNVLSYVNMVCAGLRNSIPKSIVYCQVREAKRSLLDHFFAELGTMDMKRLSSLLNEDPAIMERRSAISKRLELYRAAQSEIDAVAWSK | – | – | – | – | binds | –
DRP2B-cYFP (protein, UniProt Q9LQ55 1-920) MEAIDELSQLSDSMRQAASLLADEDPDETSSSRRPATSLNVVALGNVGAGKSAVLNSLIGHPVLPTGENGATRAPIIIDLSREESLSSKAIILQIDNKNQQVSASALRHSLQDRLSKGASGRGRDEIYLKLRTSTAPPLKLIDLPGLDQRIVDDSMIGEHAQHNDAILLVVVPASQASEISSSRALKIAKEYDPESTRTVGIISKIDQAAENPKSLAAVQALLSNQGPPKTTDIPWVALIGQSVSIASAQSGGSENSLETAWRAESESLKSILTGAPQSKLGRIALVDTLASQIRSRMKLRLPNILTGLQGKSQIVQDELARLGEQLVSSAEGTRAIALELCREFEDKFLLHLAGGEGSGWKVVASFEGNFPNRIKKLPLDRHFDLNNVKRIVLEADGYQPYLISPEKGLRSLIKTVLELAKDPARLCVDEVHRVLVDIVSASANATPGLGRYPPFKREVVAIASAALDGFKNEAKKMVVALVDMERAFVPPQHFIRLVQRRMERQRREEELKGRSSKKGQDAEQSLLNRATSPQPDGPSSTGGSLKSLRDKLMPQDKDKDKEKETPEVSGLKTAGPEGEITAGYLMKKSAKTNGWSRRWFVLNEKTGKLGYTKKQEERNFRGTVTLEECSIEEISDDEGEKSKSSKDKKSNGPDSKGPGLVFKITCRVPYKTVLKAHNALVLKAESMVDKNEWINKLQKVIQARGGQVGSASMRQSLSEGSLDKMVRKPVDPEEELRWMSQEVRGYVEAVLNSLAANVPKAVVLCQVEKSKEDMLNQLYSSISAIGNERIESLIQEDQNVKRRRDRYQKQSSLLSKLTRQLSIHDNRAAAASSWSDNSGTESSPRTNGGSSGEDWMNAFNAAASGPDSLKRYGSGGHSRRYSDPAQNGEDSSGSGGSSRRTTPNRLPPAPPQSGSSYRY | – | – | – | – | binds | –
